Data: article PMC9413943

Amino acid sequences for entries named in this document (tags omitted).
UniProt Q99497: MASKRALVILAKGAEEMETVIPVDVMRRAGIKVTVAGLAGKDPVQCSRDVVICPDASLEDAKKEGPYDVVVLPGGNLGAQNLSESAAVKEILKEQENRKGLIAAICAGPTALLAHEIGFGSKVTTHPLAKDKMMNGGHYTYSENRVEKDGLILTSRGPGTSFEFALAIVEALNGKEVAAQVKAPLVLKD
UniProt P11142: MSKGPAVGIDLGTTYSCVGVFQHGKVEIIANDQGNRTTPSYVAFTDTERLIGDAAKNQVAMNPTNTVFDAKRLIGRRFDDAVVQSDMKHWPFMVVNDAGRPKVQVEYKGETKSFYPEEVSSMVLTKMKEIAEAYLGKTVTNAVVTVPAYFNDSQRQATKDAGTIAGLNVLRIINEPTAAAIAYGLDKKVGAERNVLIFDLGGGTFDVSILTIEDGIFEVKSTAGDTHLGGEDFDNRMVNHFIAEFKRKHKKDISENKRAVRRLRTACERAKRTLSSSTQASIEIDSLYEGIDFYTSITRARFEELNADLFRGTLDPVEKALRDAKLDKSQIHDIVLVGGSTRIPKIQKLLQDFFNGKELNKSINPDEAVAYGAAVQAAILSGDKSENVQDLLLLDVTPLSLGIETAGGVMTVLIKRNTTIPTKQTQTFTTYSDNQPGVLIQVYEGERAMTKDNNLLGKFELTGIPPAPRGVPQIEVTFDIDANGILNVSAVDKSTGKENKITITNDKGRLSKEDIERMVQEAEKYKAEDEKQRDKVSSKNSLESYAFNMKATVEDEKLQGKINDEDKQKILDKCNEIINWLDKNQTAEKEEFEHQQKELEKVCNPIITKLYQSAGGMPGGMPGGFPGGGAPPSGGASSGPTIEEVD
UniProt Q7Z406: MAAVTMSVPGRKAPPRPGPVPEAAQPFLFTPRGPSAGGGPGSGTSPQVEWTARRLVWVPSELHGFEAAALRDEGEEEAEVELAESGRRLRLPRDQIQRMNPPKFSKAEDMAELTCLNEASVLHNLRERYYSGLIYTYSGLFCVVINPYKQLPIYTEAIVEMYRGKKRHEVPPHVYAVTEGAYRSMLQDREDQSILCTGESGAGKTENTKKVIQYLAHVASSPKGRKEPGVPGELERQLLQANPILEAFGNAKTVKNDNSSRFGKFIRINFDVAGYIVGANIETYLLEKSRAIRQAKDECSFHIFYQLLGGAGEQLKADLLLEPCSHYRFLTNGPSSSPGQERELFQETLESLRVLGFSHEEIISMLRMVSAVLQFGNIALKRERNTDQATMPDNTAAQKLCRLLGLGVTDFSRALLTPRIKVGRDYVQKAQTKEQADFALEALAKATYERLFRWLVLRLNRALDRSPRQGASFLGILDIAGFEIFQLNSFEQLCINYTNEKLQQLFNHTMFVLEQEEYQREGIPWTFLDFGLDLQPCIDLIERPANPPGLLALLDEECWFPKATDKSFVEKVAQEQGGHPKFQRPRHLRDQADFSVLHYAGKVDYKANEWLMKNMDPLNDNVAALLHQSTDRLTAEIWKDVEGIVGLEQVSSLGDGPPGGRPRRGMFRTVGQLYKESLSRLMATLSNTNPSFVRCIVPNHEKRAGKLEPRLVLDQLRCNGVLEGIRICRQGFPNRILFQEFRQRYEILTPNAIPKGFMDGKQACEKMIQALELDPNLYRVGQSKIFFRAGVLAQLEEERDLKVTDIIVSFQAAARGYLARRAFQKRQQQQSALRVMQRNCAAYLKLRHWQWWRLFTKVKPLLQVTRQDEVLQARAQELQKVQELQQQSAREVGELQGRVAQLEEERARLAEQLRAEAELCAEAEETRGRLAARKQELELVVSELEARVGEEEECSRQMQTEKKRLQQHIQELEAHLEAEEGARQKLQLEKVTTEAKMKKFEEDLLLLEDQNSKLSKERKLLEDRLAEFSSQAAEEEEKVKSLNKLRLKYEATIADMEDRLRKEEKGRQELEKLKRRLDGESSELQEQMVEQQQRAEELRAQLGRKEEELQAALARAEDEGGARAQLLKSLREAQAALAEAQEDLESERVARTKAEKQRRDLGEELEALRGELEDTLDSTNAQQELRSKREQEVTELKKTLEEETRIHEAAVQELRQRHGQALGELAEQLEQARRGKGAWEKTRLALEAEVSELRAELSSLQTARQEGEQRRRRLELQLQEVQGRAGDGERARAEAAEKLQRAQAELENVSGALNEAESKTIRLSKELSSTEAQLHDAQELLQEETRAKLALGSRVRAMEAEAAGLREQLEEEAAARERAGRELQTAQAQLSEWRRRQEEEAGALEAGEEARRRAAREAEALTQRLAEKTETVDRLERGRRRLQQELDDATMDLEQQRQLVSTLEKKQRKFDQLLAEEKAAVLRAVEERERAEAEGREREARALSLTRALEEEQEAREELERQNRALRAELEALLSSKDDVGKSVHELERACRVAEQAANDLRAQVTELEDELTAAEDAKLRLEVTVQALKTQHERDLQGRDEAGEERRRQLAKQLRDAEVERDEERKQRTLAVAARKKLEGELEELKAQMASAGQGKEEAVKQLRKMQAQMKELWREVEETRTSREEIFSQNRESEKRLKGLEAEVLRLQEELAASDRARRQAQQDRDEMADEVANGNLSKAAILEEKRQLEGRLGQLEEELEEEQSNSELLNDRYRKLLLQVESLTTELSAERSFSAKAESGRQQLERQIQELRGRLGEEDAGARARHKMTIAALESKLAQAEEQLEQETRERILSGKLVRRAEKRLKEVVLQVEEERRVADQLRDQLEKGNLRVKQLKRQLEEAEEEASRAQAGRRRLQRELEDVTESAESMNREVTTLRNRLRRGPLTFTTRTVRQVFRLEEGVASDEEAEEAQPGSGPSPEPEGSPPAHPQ

Biological target: DJ-1/PARK7 (Parkinson disease protein 7), precipitated by the DJ-1 antibody from K150 cells (human (endogenous in KYSE-150)) (UniProt Q99497)
Assay: affinity purification with mass spectrometry; K150 cell samples co-immunoprecipitated with the DJ-1 antibody, LC-MS/MS; named hits chosen by overlap with RNA-seq DEGs

Substance	binding
HSC70/HSPA8 (Heat shock cognate 71 kDa protein) (from UniProt P11142 1-646)	binds
MYH14 (from UniProt Q7Z406 1-1995)	binds

No constants are given. Whether binding was seen depends on the method and setting. Binding seen in cells or lysates may run through a third protein. Here binding means that the protein was enriched with, or labelled near, the bait; the list need not be complete.
